# Earlier results as cited in patent US20260209325A1, “SELECTIVE AND POTENT INHIBITORY ANTIBODIES OF MYOSTATIN ACTIVATION” (SCHOLAR ROCK, INC., priority 2022, published 2026).
# Some results were stated once for a whole list of compounds, not compound by compound.
# Conditions: SURPASS-2 trial; cited from earlier work
substance,measurement,value
tirzepatide,subjects reporting mild to moderate gastrointestinal adverse events,40-45%
